PubChem BioAssay AID504774 – Drosophila RNAi Screening Center, 2011
Test: 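Knock-downs that shift viability of MMS-exposed cells relative to untreated ones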 (primary screen). Cells: Drosophila Kc167 cells. Reagents: long dsRNA against Drosophila genes, about 0.25 µg dsRNA per well. Duration: about 6 days: 3 days knock-down, then 3 days with or without MMS. Treatment: methyl methanesulphonate 0.004% (w/v) for 3 days after knock-down. Read-out: 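Viability in wells given MMS, read as ATP luminescence, normalised by quantiles plate by plate and averaged across replicates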. Reading the numbers: mean viability with MMS and viability with MMS: higher = more surviving cells after MMS.
The screen tested about 23,000 reagents; below is an unselected part of those that have a named target and a result. 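Values are quantile-normalised luminescence on an arbitrary scale; higher means more cells surviving MMS.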 Names joined by + are all predicted targets of the reagent.

| Gene | amplicon | mean viability with MMS | viability with MMS, replicate 1 | viability with MMS, replicate 2 |
| --- | --- | --- | --- | --- |
| CG13056 | DRSC09937 | 3.74e6 | 4.12e6 | 4.27e6 |
| CG32537 | DRSC20073 | 3.62e6 | 4.15e6 | 4.09e6 |
| CG3847 | DRSC17444 | 3.71e6 | 4.09e6 | 4.22e6 |
| CG3847 | DRSC18327 | 3.24e6 | 3.79e6 | 3.19e6 |
| Or2a | DRSC18690 | 3.33e6 | 3.66e6 | 3.91e6 |
| kek1 | DRSC03551 | 3.59e6 | 3.95e6 | 4.18e6 |
| Cyp304a1 | DRSC16623 | 3.50e6 | 3.92e6 | 4.01e6 |
| Dgk | DRSC05064 | 3.25e6 | 3.76e6 | 3.52e6 |
| Dgk | DRSC05065 | 3.60e6 | 4.24e6 | 3.94e6 |
| Dgk | DRSC06171 | 3.64e6 | 4.13e6 | 4.05e6 |
| Dgk | DRSC06782 | 3.82e6 | 4.07e6 | 4.06e6 |
| Dgk | DRSC22236 | 2.50e6 | 3.65e6 | 3.65e6 |
| CG6753 | DRSC16108 | 3.52e6 | 4.01e6 | 4.00e6 |
| RpS10a | DRSC14161 | 3.57e6 | 4.01e6 | 4.10e6 |
| PIG-K | DRSC18496 | 3.48e6 | 3.94e6 | 3.96e6 |
| eater | DRSC15969 | 3.53e6 | 4.05e6 | 4.17e6 |
| eater | DRSC22254 | 3.34e6 | 3.80e6 | 3.94e6 |
| CG32102 | DRSC22015 | 3.62e6 | 4.09e6 | 4.08e6 |
| Nulp1 | DRSC09677 | 3.73e6 | 4.28e6 | 4.19e6 |
| park + Targ3 | DRSC11617 | 3.51e6 | 3.95e6 | 4.00e6 |
| CG11327 | DRSC02146 | 3.55e6 | 4.05e6 | 3.98e6 |
| Met | DRSC20284 | 3.53e6 | 4.00e6 | 3.98e6 |
| CG14591 | DRSC04868 | 3.48e6 | 4.11e6 | 3.76e6 |
| CG7806 | DRSC03071 | 3.75e6 | 4.12e6 | 4.45e6 |
| CG31759 | DRSC01230 | 3.39e6 | 3.93e6 | 3.72e6 |
| Zip42C.1 | DRSC05003 | 3.39e6 | 3.70e6 | 3.92e6 |
| CG6621 | DRSC16076 | 3.52e6 | 3.97e6 | 4.00e6 |
| CG13643 | DRSC14641 | 3.56e6 | 4.00e6 | 4.07e6 |
| CG13643 | DRSC14642 | 3.60e6 | 4.01e6 | 4.17e6 |
| Dna2 | DRSC18254 | 3.50e6 | 4.00e6 | 3.82e6 |
| CG4558 | DRSC18369 | 3.59e6 | 3.70e6 | 4.20e6 |
| Nrx-IV | DRSC11238 | 3.52e6 | 3.94e6 | 4.05e6 |
| Spase22-23 | DRSC15857 | 3.69e6 | 4.32e6 | 4.04e6 |
| CG10660 | DRSC09769 | 3.16e6 | 3.52e6 | 3.57e6 |
| Drsl5 | DRSC08159 | 3.60e6 | 4.07e6 | 4.07e6 |
| levy | DRSC04289 | 3.67e6 | 4.23e6 | 4.09e6 |
| CG13067 | DRSC09950 | 3.55e6 | 4.00e6 | 4.04e6 |
| Akr1B | DRSC10581 | 3.50e6 | 3.95e6 | 3.99e6 |
| CG12104 | DRSC08254 | 3.85e6 | 4.34e6 | 4.35e6 |
| CG1578 | DRSC19729 | 3.27e6 | 4.01e6 | 3.90e6 |
| Ugt35E1 | DRSC15193 | 3.62e6 | 4.00e6 | 4.16e6 |
| CG16711 | DRSC10220 | 3.70e6 | 4.11e6 | 4.21e6 |
| Kdsr | DRSC14245 | 1.72e6 | 3.90e6 | – |
| lsn | DRSC16081 | 3.65e6 | 4.19e6 | 4.09e6 |
| Irp-1A | DRSC16719 | 3.60e6 | 4.08e6 | 4.07e6 |
| gbb | DRSC04687 | 3.42e6 | 3.89e6 | 3.85e6 |
| Npc2a | DRSC00698 | 3.45e6 | 3.90e6 | 3.90e6 |
| CG7299 | DRSC03043 | 3.32e6 | 3.72e6 | 3.73e6 |
| thoc5 | DRSC04327 | 3.33e6 | 3.87e6 | 3.61e6 |
| CG13627 | DRSC14629 | 3.52e6 | 4.00e6 | 3.97e6 |
| ex | DRSC00817 | 3.54e6 | 3.97e6 | 4.05e6 |
| CG2278 | DRSC18226 | 3.67e6 | 4.24e6 | 4.09e6 |
| Exd2 | DRSC16105 | 3.64e6 | 4.10e6 | 4.08e6 |
| prd1 | DRSC15227 | 3.42e6 | 3.97e6 | 3.85e6 |
| Gr10a | DRSC18897 | 3.41e6 | 3.84e6 | 3.92e6 |
| Gr10a | DRSC22792 | 3.49e6 | 3.95e6 | 3.99e6 |
| Jon25Biii | DRSC03115 | 3.56e6 | 4.08e6 | 3.97e6 |
| CG32579 | DRSC19872 | 3.47e6 | 3.94e6 | 3.91e6 |
| Usp10 | DRSC08282 | 3.60e6 | 4.06e6 | 4.09e6 |
| Usp10 | DRSC08373 | 3.41e6 | 3.77e6 | 3.97e6 |
| CG1764 | DRSC19779 | 3.58e6 | 4.22e6 | 3.96e6 |
| Muc4B | DRSC18062 | 3.51e6 | 3.98e6 | 3.99e6 |
| Muc4B | DRSC18063 | 3.74e6 | 4.41e6 | 4.08e6 |
| CG6878 | DRSC10737 | 3.53e6 | 4.01e6 | 4.00e6 |
| yellow-f | DRSC15348 | 3.37e6 | 3.85e6 | 3.77e6 |
| CG34228 | DRSC05300 | 3.40e6 | 3.90e6 | 3.92e6 |
| CG2574 | DRSC19862 | 3.46e6 | 3.83e6 | 4.02e6 |
| CG13185 | DRSC06310 | 3.50e6 | 3.99e6 | 3.93e6 |

A portion taken from the entries so far:
| Gene | amplicon | mean viability with MMS | viability with MMS, replicate 1 | viability with MMS, replicate 2 |
| --- | --- | --- | --- | --- |
| CG2278 | DRSC18226 | 3.67e6 | 4.24e6 | 4.09e6 |
| Exd2 | DRSC16105 | 3.64e6 | 4.10e6 | 4.08e6 |
| prd1 | DRSC15227 | 3.42e6 | 3.97e6 | 3.85e6 |
| Gr10a | DRSC18897 | 3.41e6 | 3.84e6 | 3.92e6 |
| Gr10a | DRSC22792 | 3.49e6 | 3.95e6 | 3.99e6 |
